PubChem BioAssay AID1159593, NIAID – 2016

Purpose: 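TLR pathway parts governing NF-kappaB p65 translocation after LPS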
Cell system: RAW264.7 macrophages of mouse, with reporters for p65 (GFP) and the Tnf promoter (mCherry)
Reagent: single siRNA against mouse genes
Time to read-out: 48 to 72 hours after siRNA transfection, then LPS for 40 min
Treatment: LPS (Salmonella minnesota R595) for 40 min before fixation; dose not given
Read-out: 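Imaged nuclear over cytoplasmic GFP-p65 intensity after 40 min LPS, normalised per plate by median and MAD, robust z-score versus negative controls, mean of replicates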
Direction: p65 translocation z-score: higher = more nuclear NF-kappaB p65 after LPS
Rule for the call: 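z scored in tiers by size in both directions (1, 1.5, 2, 2.5); stated active cut-off missing, but called actives lie near absolute z 1.5 or above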
Calls: active = changed p65 translocation (either direction); inactive = no clear change
The whole screen tested 756 reagents; this is an unselected part. 137 of them (18%) count as active. 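Active means p65 translocation went either up or down; genes were judged on the median of six siRNAs, not single siRNAs.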 The numbers tell different reagents against one gene apart. Not stated in the record: the amount of reagent.

gene knocked down,siRNA no.,p65 translocation z-score,Outcome
Il12b,1,-0.736,inactive
Il12b,2,0.992,inactive
Il12b,3,0.0913,inactive
Il12b,4,-0.591,inactive
Il12b,5,-1.34,inactive
Il12b,6,0.333,inactive
Stat1,1,-0.102,inactive
Stat1,2,0.984,inactive
Stat1,3,0.289,inactive
Stat1,4,-1.23,inactive
Stat1,5,0.148,inactive
Stat1,6,-0.718,inactive
Tradd,1,-1.04,inactive
Tradd,2,-0.453,inactive
Tradd,3,-0.778,inactive
Tradd,4,-0.23,inactive
Tradd,5,-0.436,inactive
Tradd,6,0.842,inactive
Map2k6,1,-1.56,active
Map2k6,2,-1.45,inactive
Map2k6,3,0.047,inactive
Map2k6,4,-0.0989,inactive
Map2k6,5,4.63,active
Map2k6,6,0.516,inactive
Irak2,1,-2.03,active
Irak2,2,-0.959,inactive
Irak2,3,-2.22,active
Irak2,4,-1.09,inactive
Irak2,5,-1.13,inactive
Irak2,6,-0.45,inactive
Itgax,1,-0.606,inactive
Itgax,2,-0.821,inactive
Itgax,3,-1.47,inactive
Itgax,4,-0.607,inactive
Itgax,5,-0.777,inactive
Itgax,6,-0.7,inactive
Irak4,1,0.494,inactive
Irak4,2,-3.14,active
Irak4,3,-2.05,active
Irak4,4,-0.894,inactive
Irak4,5,1.25,inactive
Irak4,6,-1.69,active

Reformatted: results already given.
gene knocked down	siRNA no.	p65 translocation z-score	Outcome
Itgax	2	-0.821	inactive
Itgax	3	-1.47	inactive
Itgax	4	-0.607	inactive
Itgax	5	-0.777	inactive
Itgax	6	-0.7	inactive
Irak4	1	0.494	inactive
Irak4	2	-3.14	active
